Primary screen of a compound library

Each number is a percent effect as filed. How 0% and 100% were set is not recorded. Most values in the screen are low, and negative values occur. Compounds were drawn at random from those tested, without regard to their results.

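Phenotypic screen: M. tuberculosis growth, cholesterol and DPPC medium, 4 days; the read-out is not stated. Compounds at 500 µM. Higher reads as more growth inhibition (inferred: compounds with an IC50 in retests scored well above the rest). About 18,000 compounds were tested under these conditions; 5% (about 900) showed 50% or more at least once.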

Result for CN(CC1CC1)C(=O)c1cccnc1-n1cccn1 was -3.724%. For CCC(C)(C)NCC(=O)Nc1cccc(C(=O)NC)c1 the result was 6.121%. For COC(=O)CN1CCCC(C(=O)c2ccc(F)cc2)C1 (stereo unspecified) the result was -2.58%. CCCn1nccc1C(=O)N1CCOC[C@@H]1CC gave 5.596%. For CC(C)N1CCN(CCCn2ccnc2C#N)CC1 the result was 1.195%. For CC(O)c1ncc[nH]1 (stereo unspecified) the result was 4.21%. For CCOC(=O)c1cncnc1C(=O)OCC the result was 1.042%.

Result for COc1cc(C)cc(C(=O)NCc2ncc[nH]2)c1O was 30.06%. With Cc1cccc(CNC(=O)C2CCCCC(=O)N2)c1 (stereo unspecified) the screen gave -18.46%. Result for CCC(C)(C#N)NC(=O)Cc1cccs1 (stereo unspecified) was 7.562%. For COC(=O)NC(=O)CN1CCN(c2ccccc2)CC1 the result was -6.156%. With OCc1ccc(Cc2c[nH]cn2)cc1 the screen gave -0.4448%. For COC(=O)c1ccc(CCN2CCCC2C(N)=O)cc1 (stereo unspecified) the result was -1.373%. CCNC(=O)N1CCNCC1 read -3.175%.

Result for Cc1cscc1NC(=O)NCCC1(C)OCCO1 was -18.96%. For NC(=O)c1ccc(-c2ccc(F)cc2)o1 the result was 15.52%. With O=C(NCCO)c1ccc(-c2ccccc2)cc1 the screen gave 7.412%. COCCNC(=O)CN1CCCC1 gave 3.649%. With CCN(CC)CCNC(=O)c1ccc(S(C)(=O)=O)cc1 the screen gave -10.19%. COCC(C)(NC(=O)[C@H]1CCC(=O)N1)c1ccccc1 (stereo partly specified) gave -6.823%. For O=C(Cn1ccc(C(F)(F)F)n1)Nc1ccccn1 the result was 24.85%.

With NCC1(N2CCN(c3ccccc3)CC2)CCOCC1 the screen gave 24.42%. With Cc1cc(C[S+]([O-])CC(=O)NC2CCCC2)no1 (stereo unspecified) the screen gave 10.39%. For Cc1cccnc1C(=O)NC(c1nccn1C)C(C)C (stereo unspecified) the result was 8.832%. For CCC(NC(=O)NCCCOC)C(C)C (stereo unspecified) the result was 27.89%. For CC(=O)Nc1ccccc1CN the result was -4.845%. With c1ccc(Nc2nccs2)nc1 the screen gave -0.9168%. With CCS(=O)(=O)Nc1ccc(C(=O)NC2CC2)cc1 the screen gave 6.693%.

Result for CCN(CC)CCCN1CCOC2(CCOCC2)C1 was -2.081%. For Cc1cc(NC(=O)C2CC(=O)Nc3ccccc32)no1 (stereo unspecified) the result was -10.7%. CN(C)c1cc(CNC(=O)C2(C)CCCO2)ccn1 (stereo unspecified) read 20.8%. Cn1c(C(=O)N2CCCC2CO)cc2ccccc21 (stereo unspecified) gave 3.962%. CC(C)C(C(=O)NCCc1nnc[nH]1)c1ccccc1 (stereo unspecified) read 0.8325%. Result for C=C(C)CN1CCN(C(=O)COC)CC1 was -3.52%.

The first 3 entries again:

SMILES	effect
CN(CC1CC1)C(=O)c1cccnc1-n1cccn1	-3.724
CCC(C)(C)NCC(=O)Nc1cccc(C(=O)NC)c1	6.121
COC(=O)CN1CCCC(C(=O)c2ccc(F)cc2)C1 (stereo unspecified)	-2.58

Source: ChEMBL document CHEMBL3988442, “University of Dundee, Small-Polar-MMV Screening Library” (2021).